The list shows only some results of the screen, not a fair sample: it is rich in T/C values a quarter to a half above the control, in often repeated tests (any T/C) and in doses without a T/C. Other doses and runs of a compound stand elsewhere. T/C gives the treated animals as a percentage of the vehicle group. Some doses have a count of surviving animals in place of a T/C: the source holds a T/C of zero for them, seemingly a mark for toxic or unscored doses. Some doses without a T/C left all or most animals alive at the check, yet need not have been tolerated: the source hardly ever lists a survival T/C far under the control, and the zero likely stands for such cases as well. Survivors were counted at the toxicity check, usually on the fifth day, unless a day is given; later deaths do not show. Schedule codes are those of the source, taken here to give the interval after Q, in days (D) or hours (H), and the number of doses after X. Some entries hold several experiments; the values are given in rising order. For survival time, the PubChem record calls one and a half times the control and up active, and a quarter to a half above the control has no call in these data; cut-offs in other NCI protocols can differ. Some T/C values carry the count of animals alive at the toxicity check (mostly the fifth day); without a count, all were alive then.
System: BDF1 mice, P388 leukemia ip, median survival T/C
Assay: NCI In Vivo Anticancer Drug Screen. Data for tumor model P388 Leukemia (intraperitoneal) in B6D2F1 (BDF1) mice
Conditions: T/C endpoint: median survival time, higher T/C = longer survival
Summary of the method: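 Read-out is survival of treated animals expressed relative to the vehicle group, as a T/C ratio.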

[1] = dose: 50.0 mg/kg/injection, schedule: Q01DX009 (ip), vehicle: saline with Tween-80
[2] = dose: 100.0 mg/kg/injection, schedule: Q01DX009 (ip), vehicle: saline with Tween-80
[3] = dose: 200.0 mg/kg/injection, schedule: Q01DX009 (ip), vehicle: saline with Tween-80
[4] = dose: 3.0 mg/kg/injection, schedule: Q01DX009 (ip), vehicle: saline with Tween-80
[5] = dose: 400.0 mg/kg/injection, schedule: Q04DX003 (ip), vehicle: saline with Tween-80
[6] = dose: 200.0 mg/kg/injection, schedule: Q04DX003 (ip), vehicle: saline
[7] = dose: 400.0 mg/kg/injection, schedule: Q04DX003 (ip), vehicle: saline
[8] = dose: 400.0 mg/kg/injection, schedule: Q01DX009 (ip), vehicle: saline with Tween-80
[9] = dose: 200.0 mg/kg/injection, schedule: Q01DX001 (ip), vehicle: Klucel (hydroxypropylcellulose) (HPC)
[10] = dose: 400.0 mg/kg/injection, schedule: Q01DX001 (ip), vehicle: Klucel (hydroxypropylcellulose) (HPC)
[11] = dose: 100.0 mg/kg/injection, schedule: Q01DX009 (ip), vehicle: saline
[12] = dose: 200.0 mg/kg/injection, schedule: Q01DX009 (ip), vehicle: other
[13] = dose: 400.0 mg/kg/injection, schedule: Q01DX009 (ip), vehicle: other
[14] = dose: 0.25 mg/kg/injection, schedule: Q01DX009 (ip), vehicle: saline with Tween-80
[15] = dose: 0.5 mg/kg/injection, schedule: Q01DX009 (ip), vehicle: saline with Tween-80
[16] = dose: 1.0 mg/kg/injection, schedule: Q01DX009 (ip), vehicle: saline with Tween-80
[17] = dose: 2.0 mg/kg/injection, schedule: Q01DX009 (ip), vehicle: saline with Tween-80
[18] = dose: 4.0 mg/kg/injection, schedule: Q01DX009 (ip), vehicle: saline with Tween-80
[19] = dose: 8.0 mg/kg/injection, schedule: Q01DX009 (ip), vehicle: saline with Tween-80

With `CC[N+](CC)(CC)CCC[N+](CC)(CC)CC` the survivor count (dose: 25.0 mg/kg/injection, schedule: Q01DX009 (ip), vehicle: water) was 6 of 6, the T/C (dose: 100.0 mg/kg/injection, schedule: Q01DX009 (ip), vehicle: water) was 126 % of control and the survivor count (dose: 200.0 mg/kg/injection, schedule: Q01DX009 (ip), vehicle: water) was 1 of 6. The survivor count (dose: 400.0 mg/kg/injection, schedule: Q04DX003 (ip), vehicle: water) was 2 of 6.
With `O=P(Oc1ccc(OP(=O)(N2CC2)N2CC2)cc1)(N1CC1)N1CC1` the survivor count (dose: 600.0 mg/kg/injection, schedule: Q04DX003 (ip), vehicle: saline with Tween-80) was 1 of 6.
With `N#CC(Br)(CBr)COc1ccc(Cl)cc1Cl` (stereo not given) the survivor count [1] was 5 of 6, the survivor count [2] was 0 of 6 and the survivor count [3] was 0 of 6.
`CNC(=N)c1ccc(NC(=N)c2ccc(NC(=O)Nc3ccc(C(=N)Nc4ccc(C(=N)NC)cc4)cc3)cc2)cc1` was tested, and the T/C [4] was 133 % of control, the T/C (dose: 5.0 mg/kg/injection, schedule: Q01DX009 (ip), vehicle: saline with Tween-80) was 135 % of control and the survivor count (dose: 18.0 mg/kg/injection, schedule: Q01DX009 (ip), vehicle: saline with Tween-80) was 2 of 6 and 5 of 6. For the same compound, the survivor count (dose: 25.0 mg/kg/injection, schedule: Q04DX003 (ip), vehicle: saline with Tween-80) was 2 of 6 and the survivor count (dose: 50.0 mg/kg/injection, schedule: Q04DX003 (ip), vehicle: saline with Tween-80) was 0 of 6.
With `Clc1ccc2c(Cl)ncnc2c1` the survivor count [5] was 0 of 6.
For `Cc1c(N)ncc2ccccc12`, the survivor count [6] was 3 of 6 and the survivor count [7] was 0 of 6.
`COC(=S)SCN(CSC(=S)OC)c1ccccc1Cl` was tested, and the T/C [3] was 140 % of control, the T/C (dose: 264.0 mg/kg/injection, schedule: Q01DX009 (ip), vehicle: saline with Tween-80) was 137 % of control and the T/C [8] was 141 % of control.
In the case of `CC(Br)C1(c2cccc([N+](=O)[O-])c2)OCCO1` (stereo not given), the survivor count [9] is reported as 1 of 6 and the survivor count [10] is reported as 0 of 6.
`CC1CN1P(=O)(N1CC=CCC1)N1CC1C` (stereo not given) was tested, and the T/C (dose: 25.0 mg/kg/injection, schedule: Q01DX009 (ip), vehicle: saline) was 141 % of control, the T/C (dose: 37.5 mg/kg/injection, schedule: Q01DX009 (ip), vehicle: saline) was 137 % of control and the survivor count [11] was 6 of 6. For the same compound, the survivor count [6] was 6 of 6 and the survivor count [7] was 3 of 6.
With `Cn1cc(N)c2ccccc2c1=O` the survivor count (dose: 200.0 mg/kg/injection, schedule: Q01DX005 (ip), vehicle: suspension in saline) was 0 of 5.
With `COc1cc(C=Nc2ccc(C(=O)O)cc2)ccc1N(CCCl)CCCl` the T/C (dose: 3.0 mg/kg/injection, schedule: Q04DX003 (ip), vehicle: saline with Tween-80) was 142 % of control, the T/C (dose: 5.0 mg/kg/injection, schedule: Q04DX003 (ip), vehicle: saline with Tween-80) was 141 % of control and the T/C (dose: 25.0 mg/kg/injection, schedule: Q01DX009 (ip), vehicle: saline with Tween-80) was 141 % of control. The T/C [1] was 137 % of control [5 of 6 alive].
For `c1ccc(Nc2n[n+](-c3ccccc3)no2)cc1`, the survivor count [8] was 3 of 6.
For `C1CCC(=[N+]2CCCC2)CC1`, the survivor count [7] was 2 of 6.
In the case of `COc1cc(C=Nc2cccc(Cl)c2)ccc1N(CCCl)CCCl`, the T/C (dose: 4.0 mg/kg/injection, schedule: Q04DX003 (ip), vehicle: saline with Tween-80) is reported as 133 % of control and the T/C (dose: 75.0 mg/kg/injection, schedule: Q04DX003 (ip), vehicle: saline with Tween-80) is reported as 142 % of control.
With `O=C1NN=C(c2ccc(Cl)cc2)CS1` the survivor count [3] was 0 of 6.
`O=NN(CCCl)C(=O)NCC1CCC(CNC(=O)N(CCCl)N=O)CC1` (stereo not given) was tested, and the T/C (dose: 11.7 mg/kg/injection, schedule: Q01DX009 (ip), vehicle: other) was 136 % of control, the T/C (dose: 17.6 mg/kg/injection, schedule: Q01DX009 (ip), vehicle: other) was 131 % of control and the T/C (dose: 44.0 mg/kg/injection, schedule: Q04DX003 (ip), vehicle: saline sonified) was 135 % of control. For the same compound, the T/C [12] was 125 % of control, the survivor count [13] was 0 of 6 and the T/C (dose: 400.0 mg/kg/injection, schedule: Q04DX003 (ip), vehicle: saline sonified) was 130 % of control.
With `CC1=CC(=O)[C@@H](O)[C@]2(C)[C@H]3[C@@]4(O)OC[C@]35[C@H]([C@@H](C)[C@H]4O)[C@@H](OC(=O)c3ccccc3)C(=O)O[C@@H]5C[C@@H]12` the survivor count (dose: 0.06 mg/kg/injection, schedule: Q01DX009 (ip), vehicle: saline with Tween-80) was 5 of 6, the survivor count (dose: 0.12 mg/kg/injection, schedule: Q01DX009 (ip), vehicle: saline with Tween-80) was 6 of 6 and the T/C [14] was 125 and 131 % of control. The survivor count [14] was 5 of 6, the T/C [15] was 127, 139, 184 % of control [5 of 6 alive] and the survivor count [15] was 6 of 6. The T/C [16] was 125, 134 [5 of 6 alive], 175 % of control, the survivor count [16] was 6 of 6 and the T/C [17] was 135, 161, 201 % of control [4 of 6 alive]. The survivor count [17] was 3 of 6, the T/C [18] was 146 and 151 % of control and the survivor count [18] was 3 of 6 and 5 of 6. For the same compound, the T/C [19] was 137 % of control, the survivor count [19] was 1 of 6 and 5 of 6 and the survivor count (dose: 16.0 mg/kg/injection, schedule: Q01DX009 (ip), vehicle: saline with Tween-80) was 3 of 6. For the same compound, the survivor count (dose: 32.0 mg/kg/injection, schedule: Q01DX009 (ip), vehicle: saline with Tween-80) was 0 of 6.
With `CC(C)(C)CC(C)(C)c1ccc(O)cc1O` the survivor count [2] was 6 of 6.
In the case of `COc1cc2c(cc1OC)[C@H]1CNC[C@H]1[C@@H](c1ccccc1)C2`, the T/C [9] is reported as 145 % of control and the survivor count [10] is reported as 0 of 6 and 1 of 6.
For `CN(C)C(=O)c1ccc(C(C)(C)C)cc1`, the survivor count [12] was 3 of 6 and the survivor count [13] was 3 of 6.
For `CC(C)CSc1nc(N)nc2nc[nH]c12`, the survivor count [5] was 0 of 6.
`c1cc(Nc2ccc(Nc3ccc(CN4CCCCC4)cc3)cc2)ccc1CN1CCCCC1` was tested, and the T/C (dose: 50.0 mg/kg/injection, schedule: Q01DX009 (ip), vehicle: other) was 149 % of control, the T/C (dose: 100.0 mg/kg/injection, schedule: Q01DX009 (ip), vehicle: other) was 133 % of control and the survivor count [12] was 0 of 6.
In the case of `Oc1c(-c2ccccc2)cc(-[n+]2c(-c3ccccc3)cc(-c3ccccc3)cc2-c2ccccc2)cc1-c1ccccc1`, the T/C [4] is reported as 130 % of control.
With `CCCCCCCCCCCCN1CCCC(C)C1` (stereo not given) the survivor count [2] was 5 of 6 and the survivor count [3] was 2 of 6.
With `O=c1oc2ccccc2c(O)c1C(C/C(=N/O)c1ccccc1)c1ccccc1` (stereo not given) the survivor count [1] was 6 of 6, the survivor count [2] was 6 of 6 and the survivor count (dose: 100.0 mg/kg/injection, schedule: Q04DX003 (ip), vehicle: saline with Tween-80) was 6 of 6.
In the case of `O=C1c2ccccc2C(=O)c2c(NCCSCCO)ccc(NCCSCCO)c21`, the survivor count [12] is reported as 6 of 6 and the survivor count [13] is reported as 6 of 6.
With `O=[N+]([O-])c1ccc2[nH]c3c(c2c1)CSCC3` the survivor count [3] was 5 of 6.
In the case of `Cc1cc(NC(=O)Nc2ccc(C3=NCCCN3)cc2)ccc1NC(=O)Nc1ccc(C2=NCCCN2)cc1`, the T/C (dose: 19.0 mg/kg/injection, schedule: Q01DX009 (ip), vehicle: saline) is reported as 149 % of control and the T/C [11] is reported as 147 % of control.
With `O=C(O)C1=NN(c2cc(Cl)c(S(=O)(=O)O)cc2Cl)C(=O)C1` the T/C (dose: 400.0 mg/kg/injection, schedule: Q01DX009 (ip), vehicle: saline) was 130 % of control [5 of 6 alive].
For `NC(CCC(=O)NNc1ccccc1)C(=O)O` (stereo not given), the survivor count (dose: 60.0 mg/kg/injection, schedule: Q01DX009 (ip), vehicle: saline with Tween-80) was 7 of 7.

From PubChem BioAssay AID328 (DTP/NCI, 2004)
